By UniProt entry, the sequences of proteins in these tests, tags left out.
UniProt P25490: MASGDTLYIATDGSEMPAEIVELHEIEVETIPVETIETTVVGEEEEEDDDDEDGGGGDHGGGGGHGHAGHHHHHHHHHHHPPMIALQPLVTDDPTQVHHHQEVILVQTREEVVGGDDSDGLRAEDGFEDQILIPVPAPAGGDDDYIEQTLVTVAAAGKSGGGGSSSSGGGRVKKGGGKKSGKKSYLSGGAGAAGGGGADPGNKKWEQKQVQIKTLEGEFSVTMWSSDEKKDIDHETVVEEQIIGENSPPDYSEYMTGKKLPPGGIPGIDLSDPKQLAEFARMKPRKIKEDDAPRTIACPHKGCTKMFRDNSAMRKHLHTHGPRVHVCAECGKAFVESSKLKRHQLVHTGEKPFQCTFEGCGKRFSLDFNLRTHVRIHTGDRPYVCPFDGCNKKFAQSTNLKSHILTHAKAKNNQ

According to publication doi:10.1101/2024.11.07.622424:

Target: Yin Yang 1 (YY1), endogenous (human (endogenous in THP-1)) (UniProt P25490)
Assay: affinity purification with mass spectrometry

B1: nucleolar and spindle-associated protein 1 (NUSAP1), endogenous (protein, UniProt Q9BXS6 1-441)
chain: MIIPSLEELDSLKYSDLQNLAKSLGLRANLRATKLLKALKGYIKHEARKGNENQDESQTSASSCDETEIQISNQEEAERQPLGHVTKTRRRCKTVRVDPDSQQNHSEIKISNPTEFQNHEKQESQDLRATAKVPSPPDEHQEAENAVSSGNRDSKVPSEGKKSLYTDESSKPGKNKRTAITTPNFKKLHEAHFKEMESIDQYIERKKKHFEEHNSMNELKQQPINKGGVRTPVPPRGRLSVASTPISQRRSQGRSCGPASQSTLGLKGSLKRSAISAAKTGVRFSAATKDNEHKRSLTKTPARKSAHVTVSGGTPKGEAVLGTHKLKTITGNSAAVITPFKLTTEATQTPVSNKKPVFDLKASLSRPLNYEPHKGKLKPWGQSKENNYLNQHVNRINFYKKTYKQPHLQTKEEQRKKREQERKEKKAKVLGMRRGLILAED
- binding: binds

These are yes or no findings as the source states them, for the method shown. In cells and extracts the contact can be indirect. Here binding means that the protein was enriched with, or labelled near, the bait; the list need not be complete.
